According to the supplement of paper PMC10849652:
The other results are listed elsewhere or left out.

Protein sequences, listed by entry. Tags and fused reporters are not part of them. Lines headed by an entry give the natural chain unless they say otherwise; changes in a name come on top.
UniProt O00159, whole entry, looked up: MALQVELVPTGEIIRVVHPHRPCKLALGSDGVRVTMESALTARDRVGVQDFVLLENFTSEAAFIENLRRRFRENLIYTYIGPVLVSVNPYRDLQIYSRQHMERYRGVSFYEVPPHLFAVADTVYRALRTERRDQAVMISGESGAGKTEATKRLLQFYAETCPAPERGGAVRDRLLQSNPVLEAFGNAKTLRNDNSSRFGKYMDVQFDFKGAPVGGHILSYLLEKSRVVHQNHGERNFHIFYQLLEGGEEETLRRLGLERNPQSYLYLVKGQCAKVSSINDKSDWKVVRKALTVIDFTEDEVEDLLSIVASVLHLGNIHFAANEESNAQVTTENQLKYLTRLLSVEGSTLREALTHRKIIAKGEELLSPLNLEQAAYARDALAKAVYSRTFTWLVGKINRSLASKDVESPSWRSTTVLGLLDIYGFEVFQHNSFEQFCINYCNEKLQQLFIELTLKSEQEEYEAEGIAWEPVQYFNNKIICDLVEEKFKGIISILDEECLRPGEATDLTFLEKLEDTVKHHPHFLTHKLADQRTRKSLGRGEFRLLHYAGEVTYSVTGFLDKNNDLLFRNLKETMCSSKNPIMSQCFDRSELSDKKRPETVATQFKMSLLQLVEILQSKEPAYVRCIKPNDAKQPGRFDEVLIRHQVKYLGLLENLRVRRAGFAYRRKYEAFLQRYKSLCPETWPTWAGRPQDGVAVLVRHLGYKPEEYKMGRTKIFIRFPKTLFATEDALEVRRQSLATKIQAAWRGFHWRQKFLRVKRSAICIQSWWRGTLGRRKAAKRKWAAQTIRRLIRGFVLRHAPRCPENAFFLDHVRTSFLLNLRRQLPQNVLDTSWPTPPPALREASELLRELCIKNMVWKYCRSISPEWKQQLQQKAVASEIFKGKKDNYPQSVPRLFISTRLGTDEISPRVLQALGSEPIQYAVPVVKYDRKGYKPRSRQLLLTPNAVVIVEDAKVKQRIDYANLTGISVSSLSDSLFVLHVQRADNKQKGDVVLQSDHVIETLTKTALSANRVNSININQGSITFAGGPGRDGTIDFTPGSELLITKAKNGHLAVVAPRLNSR
UniProt O94776: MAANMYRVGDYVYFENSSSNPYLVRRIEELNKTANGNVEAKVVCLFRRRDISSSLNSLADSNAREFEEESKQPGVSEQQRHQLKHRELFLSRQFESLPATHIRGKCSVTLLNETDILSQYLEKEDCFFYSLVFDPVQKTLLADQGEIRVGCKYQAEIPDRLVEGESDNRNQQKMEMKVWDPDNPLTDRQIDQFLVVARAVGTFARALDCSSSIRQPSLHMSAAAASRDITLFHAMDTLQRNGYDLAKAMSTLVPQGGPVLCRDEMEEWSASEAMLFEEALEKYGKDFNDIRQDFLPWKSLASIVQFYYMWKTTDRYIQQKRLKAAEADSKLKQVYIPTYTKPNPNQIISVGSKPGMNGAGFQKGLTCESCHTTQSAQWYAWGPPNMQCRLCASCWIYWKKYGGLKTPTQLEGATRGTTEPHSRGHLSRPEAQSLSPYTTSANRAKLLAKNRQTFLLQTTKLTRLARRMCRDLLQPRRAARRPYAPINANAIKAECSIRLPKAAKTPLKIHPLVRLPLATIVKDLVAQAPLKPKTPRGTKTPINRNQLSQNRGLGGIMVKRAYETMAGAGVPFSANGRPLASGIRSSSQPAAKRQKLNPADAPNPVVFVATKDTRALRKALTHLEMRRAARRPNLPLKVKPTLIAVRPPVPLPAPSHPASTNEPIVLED
UniProt Q92614: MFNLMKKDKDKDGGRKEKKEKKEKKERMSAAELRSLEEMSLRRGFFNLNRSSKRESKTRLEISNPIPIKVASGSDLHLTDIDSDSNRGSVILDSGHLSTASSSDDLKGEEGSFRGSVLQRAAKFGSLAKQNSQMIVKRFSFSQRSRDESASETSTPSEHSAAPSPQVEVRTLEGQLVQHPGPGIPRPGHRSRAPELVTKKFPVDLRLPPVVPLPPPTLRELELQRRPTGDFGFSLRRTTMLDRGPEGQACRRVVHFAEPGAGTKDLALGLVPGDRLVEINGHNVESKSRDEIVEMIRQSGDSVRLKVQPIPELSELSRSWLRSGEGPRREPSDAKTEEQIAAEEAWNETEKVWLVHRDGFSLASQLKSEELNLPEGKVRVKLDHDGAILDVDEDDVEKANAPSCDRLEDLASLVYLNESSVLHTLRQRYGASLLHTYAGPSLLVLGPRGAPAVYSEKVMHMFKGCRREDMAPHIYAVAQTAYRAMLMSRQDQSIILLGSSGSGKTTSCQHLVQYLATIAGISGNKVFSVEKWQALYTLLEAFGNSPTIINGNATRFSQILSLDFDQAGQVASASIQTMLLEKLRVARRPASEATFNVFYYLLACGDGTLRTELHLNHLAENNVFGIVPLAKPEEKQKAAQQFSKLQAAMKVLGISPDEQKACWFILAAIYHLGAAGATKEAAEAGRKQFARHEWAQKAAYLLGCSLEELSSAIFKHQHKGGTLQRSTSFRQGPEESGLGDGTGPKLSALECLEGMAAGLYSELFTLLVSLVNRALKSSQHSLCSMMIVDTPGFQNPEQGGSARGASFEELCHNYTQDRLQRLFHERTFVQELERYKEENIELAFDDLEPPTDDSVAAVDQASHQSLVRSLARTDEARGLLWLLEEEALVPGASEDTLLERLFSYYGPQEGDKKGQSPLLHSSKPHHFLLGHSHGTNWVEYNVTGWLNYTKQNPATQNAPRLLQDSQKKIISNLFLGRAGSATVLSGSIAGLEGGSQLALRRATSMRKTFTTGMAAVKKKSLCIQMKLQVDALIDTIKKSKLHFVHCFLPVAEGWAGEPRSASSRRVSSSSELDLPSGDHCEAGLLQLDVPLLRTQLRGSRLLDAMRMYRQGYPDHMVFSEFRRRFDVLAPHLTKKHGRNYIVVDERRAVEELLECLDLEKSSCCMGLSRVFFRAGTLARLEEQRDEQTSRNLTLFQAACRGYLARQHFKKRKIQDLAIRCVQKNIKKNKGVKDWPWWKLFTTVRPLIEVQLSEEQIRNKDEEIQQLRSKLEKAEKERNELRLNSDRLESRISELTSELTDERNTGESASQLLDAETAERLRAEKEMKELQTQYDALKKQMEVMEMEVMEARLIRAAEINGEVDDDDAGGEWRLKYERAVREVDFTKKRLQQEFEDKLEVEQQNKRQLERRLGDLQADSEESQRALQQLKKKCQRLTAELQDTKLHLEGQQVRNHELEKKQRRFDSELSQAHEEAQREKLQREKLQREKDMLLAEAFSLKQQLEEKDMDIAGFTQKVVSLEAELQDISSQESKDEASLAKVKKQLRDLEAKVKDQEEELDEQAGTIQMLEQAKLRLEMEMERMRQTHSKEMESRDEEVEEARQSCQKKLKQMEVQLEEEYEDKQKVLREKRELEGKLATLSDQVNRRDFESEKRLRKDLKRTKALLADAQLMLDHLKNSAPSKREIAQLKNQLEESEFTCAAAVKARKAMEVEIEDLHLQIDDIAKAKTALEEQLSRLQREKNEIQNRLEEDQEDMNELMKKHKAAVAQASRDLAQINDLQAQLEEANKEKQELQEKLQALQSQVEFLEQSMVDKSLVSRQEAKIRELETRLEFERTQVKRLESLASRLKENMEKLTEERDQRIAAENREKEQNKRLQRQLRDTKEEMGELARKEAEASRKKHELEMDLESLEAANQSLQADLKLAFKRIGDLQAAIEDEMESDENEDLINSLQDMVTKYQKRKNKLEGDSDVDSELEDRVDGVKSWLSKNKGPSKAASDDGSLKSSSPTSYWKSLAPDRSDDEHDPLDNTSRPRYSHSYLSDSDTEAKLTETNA
UniProt P82909: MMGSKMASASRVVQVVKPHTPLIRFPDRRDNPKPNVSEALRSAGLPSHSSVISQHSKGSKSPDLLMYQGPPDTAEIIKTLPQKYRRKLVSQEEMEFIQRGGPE
UniProt Q13615: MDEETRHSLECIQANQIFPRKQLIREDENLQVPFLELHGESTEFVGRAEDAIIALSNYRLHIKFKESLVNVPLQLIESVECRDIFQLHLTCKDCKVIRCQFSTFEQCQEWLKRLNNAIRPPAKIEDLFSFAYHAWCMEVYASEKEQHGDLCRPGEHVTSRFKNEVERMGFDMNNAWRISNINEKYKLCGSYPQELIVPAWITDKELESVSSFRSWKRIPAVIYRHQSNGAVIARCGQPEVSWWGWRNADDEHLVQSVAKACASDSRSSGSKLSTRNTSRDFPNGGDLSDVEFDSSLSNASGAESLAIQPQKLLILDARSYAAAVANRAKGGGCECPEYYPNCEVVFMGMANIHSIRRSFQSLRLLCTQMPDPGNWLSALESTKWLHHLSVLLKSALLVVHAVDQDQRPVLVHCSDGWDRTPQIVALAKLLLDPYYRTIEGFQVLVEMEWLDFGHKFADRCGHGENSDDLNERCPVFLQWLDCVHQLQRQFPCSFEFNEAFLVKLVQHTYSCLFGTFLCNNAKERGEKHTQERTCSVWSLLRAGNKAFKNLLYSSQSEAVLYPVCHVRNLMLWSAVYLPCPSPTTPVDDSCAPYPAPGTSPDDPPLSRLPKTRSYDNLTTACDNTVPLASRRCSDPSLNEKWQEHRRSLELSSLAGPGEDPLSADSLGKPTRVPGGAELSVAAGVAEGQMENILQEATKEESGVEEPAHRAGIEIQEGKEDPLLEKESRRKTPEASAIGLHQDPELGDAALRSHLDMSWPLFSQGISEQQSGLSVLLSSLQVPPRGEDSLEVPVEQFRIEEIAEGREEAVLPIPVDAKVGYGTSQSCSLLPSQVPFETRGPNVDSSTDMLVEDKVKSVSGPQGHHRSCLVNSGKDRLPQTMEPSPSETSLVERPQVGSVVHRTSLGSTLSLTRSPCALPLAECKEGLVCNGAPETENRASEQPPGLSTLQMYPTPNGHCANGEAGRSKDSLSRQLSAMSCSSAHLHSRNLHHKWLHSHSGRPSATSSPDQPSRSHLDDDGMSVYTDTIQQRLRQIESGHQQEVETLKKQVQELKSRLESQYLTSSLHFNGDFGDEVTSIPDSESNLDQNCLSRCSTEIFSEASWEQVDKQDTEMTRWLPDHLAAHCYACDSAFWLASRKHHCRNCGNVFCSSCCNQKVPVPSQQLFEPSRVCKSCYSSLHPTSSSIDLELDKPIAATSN
UniProt Q9NPC7: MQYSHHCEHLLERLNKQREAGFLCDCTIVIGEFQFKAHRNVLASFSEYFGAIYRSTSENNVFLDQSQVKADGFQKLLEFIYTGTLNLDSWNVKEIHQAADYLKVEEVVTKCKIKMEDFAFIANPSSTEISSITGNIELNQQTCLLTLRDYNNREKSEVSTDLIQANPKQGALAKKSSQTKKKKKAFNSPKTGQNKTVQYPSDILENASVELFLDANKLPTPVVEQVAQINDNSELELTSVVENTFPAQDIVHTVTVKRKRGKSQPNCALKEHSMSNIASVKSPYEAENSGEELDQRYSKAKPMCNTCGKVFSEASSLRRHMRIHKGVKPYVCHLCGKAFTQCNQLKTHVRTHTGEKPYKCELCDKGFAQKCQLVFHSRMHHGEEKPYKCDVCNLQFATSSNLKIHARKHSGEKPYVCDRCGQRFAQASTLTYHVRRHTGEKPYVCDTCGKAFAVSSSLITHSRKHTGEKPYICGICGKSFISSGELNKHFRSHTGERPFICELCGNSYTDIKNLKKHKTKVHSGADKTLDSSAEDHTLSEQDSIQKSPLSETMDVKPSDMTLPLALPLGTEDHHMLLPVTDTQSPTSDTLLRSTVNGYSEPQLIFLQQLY
UniProt Q03426, whole entry, looked up: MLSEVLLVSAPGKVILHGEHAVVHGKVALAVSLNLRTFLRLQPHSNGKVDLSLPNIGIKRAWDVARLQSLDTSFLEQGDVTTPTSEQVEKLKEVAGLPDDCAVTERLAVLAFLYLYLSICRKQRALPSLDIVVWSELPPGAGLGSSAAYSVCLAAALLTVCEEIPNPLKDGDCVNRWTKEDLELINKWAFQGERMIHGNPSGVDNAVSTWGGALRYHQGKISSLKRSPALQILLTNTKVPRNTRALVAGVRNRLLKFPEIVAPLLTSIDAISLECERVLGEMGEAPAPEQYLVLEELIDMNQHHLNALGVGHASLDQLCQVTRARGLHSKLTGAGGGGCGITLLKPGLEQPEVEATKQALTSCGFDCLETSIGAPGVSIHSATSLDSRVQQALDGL
UniProt Q15800: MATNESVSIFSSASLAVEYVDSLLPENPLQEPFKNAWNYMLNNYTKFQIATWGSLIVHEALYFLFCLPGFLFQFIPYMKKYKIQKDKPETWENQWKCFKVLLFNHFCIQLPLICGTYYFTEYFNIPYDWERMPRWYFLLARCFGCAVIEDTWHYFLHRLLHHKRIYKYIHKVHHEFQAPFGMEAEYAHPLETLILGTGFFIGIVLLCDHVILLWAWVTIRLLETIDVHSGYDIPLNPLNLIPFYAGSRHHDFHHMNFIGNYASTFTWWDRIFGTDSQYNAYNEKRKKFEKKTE
UniProt Q969H8: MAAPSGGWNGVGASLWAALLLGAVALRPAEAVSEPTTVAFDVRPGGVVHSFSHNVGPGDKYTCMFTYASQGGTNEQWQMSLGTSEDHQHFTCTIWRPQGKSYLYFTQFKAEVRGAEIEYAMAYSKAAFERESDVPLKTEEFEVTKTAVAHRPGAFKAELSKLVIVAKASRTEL

Assays:
Test in all cases: log2 fold change, soluble protein after heating vs DMSO (PISA); higher = thermal stabilisation; K562 cells, 10 uM, 30 min; active = over 0.2 and 3.5 SD of the protein, either way, in both replicates (recomputed)
[1] = compound: CC1=C(C=C(C=C1)NC(=O)C2=CC(=CC=C2)C(C)(C)C#N)NC3=CC4=C(C=C3)N=CN(C4=O)C
Outline: (§1)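 Quantification of soluble protein used TMTpro 16plex LC-MS/MS, with channel sums equalised. Samples were the supernatant after 21,000xg for 90 min of pooled aliquots from K562 cells (2×10^6 cells/mL) treated with 10 μM compound for 30 min, heated for 3 min over 48°C-58°C, and extracted in PBS with 0.5% NP-40 at 4°C. Values, from duplicates, describe thermal stability against control samples on a log2 fold-change scale.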

[2] = compound: CC1=C(C=C(C=C1)NC(=O)C2=CC(=CC=C2)N(C)C)NC(=O)C3=CC=C(C=C3)O
Outline: as §1

[3] = compound: CC1=CC=C(C=C1)SC2=C3C=C(SC3=CN=C2)C(=O)N
Outline: as §1

[4] = compound: CC1=NC(=CC=C1)C2=C(N=C(N2)C(C)(C)C)C3=CC4=NC=CN=C4C=C3
Outline: as §1

[5] = compound: CCCCN(Cc1ccc(C(=O)NO)cc1)C(=O)Nc1ccccc1 [Nexturastat A]
Outline: as §1

[6] = compound: CCCS(=O)(=O)Nc1ccc(F)c(C(=O)c2c[nH]c3ncc(-c4ccc(Cl)cc4)cc23)c1F [vemurafenib]
Outline: as §1

[7] = compound: CCCS(=O)(=O)Nc1ccc(F)c(C(=O)c2c[nH]c3ncc(Cl)cc23)c1F
Outline: as §1

[8] = compound: CCCc1cc(C)[nH]c(=O)c1CNC(=O)c1cc(-c2ccnc(N3CCN(C)CC3)c2)cc2c1cnn2C(C)C
Outline: as §1

[9] = compound: CCN(CC)Cc1ccc2cc(COC(=O)Nc3ccc(C(=O)NO)cc3)ccc2c1 [givinostat]
Outline: as §1

[10] = compound: CCN(CCCOc1ccc2c(Nc3cc(CC(=O)Nc4cccc(F)c4)[nH]n3)ncnc2c1)CCOP(=O)(O)O [barasertib]
Outline: as §1

[11] = compound: CC[C@@H]1C(=O)N(C)c2cnc(Nc3ccc(C(=O)NC4CCN(C)CC4)cc3OC)nc2N1C1CCCC1
Outline: as §1

[12] = compound: CC[C@@H]1C(=O)N(C)c2cnc(Nc3ccc(C(=O)N[C@H]4CC[C@H](N5CCN(CC6CC6)CC5)CC4)cc3OC)nc2N1C(C)C [volasertib]
Outline: as §1

[13] = compound: CC[C@H](C)N1C=C(C2=C(C=C(C=C21)C3=CN=C(C=C3)N4CCNCC4)C(=O)NCC5=C(C=C(NC5=O)C)C)C
Outline: as §1

[14] = compound: CC[C@H](C)[C@@H](C(=O)N[C@@H]([C@@H](C)O)C(=O)N[C@@H](CC(C)C)C(=O)[C@]1(CO1)C)NC(=O)[C@H]([C@@H](C)CC)N(C)C(=O)C [epoxomicin]
Outline: as §1

[15] = compound: CCn1c(C(=O)N(C2CC2)C2CC2)cc2c3c(ncn3C)c(Nc3cc(C)n(C)n3)nc21
Outline: as §1

[16] = compound: CCn1cc(-c2ccnc3[nH]c(-c4cccc(CN(C)C)c4)cc23)c(-c2ccc(NC(=O)N(C)C)cc2)n1
Outline: as §1

[17] = compound: CN(C)CC(=O)Nc1ccc2[nH]c(=O)c3ccccc3c2c1
Outline: as §1

[18] = compound: CN(CCOC1=CC=C(C=C1)C[C@H]2C(=O)NC(=O)S2)C3=CC=CC=N3 (racemic) [rosiglitazone]
Outline: as §1

[19] = compound: CN1C2=C(C3=C1C(=O)N(N=C3)CC4=CC(=CC=C4)N)SC(=C2)S(=O)C
Outline: as §1

[20] = compound: CN1CCC(CNc2ccc3ncc(-c4cccc(OC(F)(F)F)c4)n3n2)CC1
Outline: as §1

Measured: log2 fold change

MYO1C (UniProt O00159)
inactive: [1] -0.017 | [2] -0.001 | [3] -0.019 | [4] 0.224 | [5] 0.268 | [6] -0.046 | [7] 0.13 | [8] 0.057 | [9] 0.043 | [10] -0.031 | [11] -0.056 | [12] -0.322 | [13] 0.115 | [14] -0.144 | [15] -0.03 | [16] -0.011 | [17] 0.009 | [18] 0.064 | [19] 0.154 | [20] -0.209

MTA2 (UniProt O94776)
inactive: [1] 0.054 | [2] -0.047 | [3] -0.009 | [4] 0.025 | [5] -0.039 | [6] 0.013 | [7] 0.043 | [8] 0.175 | [9] 0.191 | [10] 0.064 | [11] -0.05 | [12] -0.251 | [13] 0.095 | [14] 0.015 | [15] -0.042 | [16] 0.041 | [17] 0.05 | [18] 0.021 | [19] 0.07 | [20] -0.054

MYH9 (UniProt P35579)
inactive: [1] 0.011 | [2] -0.013 | [3] 0.04 | [4] 0.061 | [5] -0.136 | [6] 0.046 | [7] 0.081 | [8] -0.005 | [9] -0.029 | [10] 0.009 | [11] -0.041 | [12] -0.067 | [13] 0.021 | [14] 0.043 | [15] -0.021 | [16] -0.048 | [17] 0.02 | [18] 0.035 | [19] -0.072 | [20] 0.068

2 successive records from above:
MTA2 (UniProt O94776)
inactive: [1] 0.054 | [2] -0.047 | [3] -0.009 | [4] 0.025 | [5] -0.039 | [6] 0.013 | [7] 0.043 | [8] 0.175 | [9] 0.191 | [10] 0.064 | [11] -0.05 | [12] -0.251 | [13] 0.095 | [14] 0.015 | [15] -0.042 | [16] 0.041 | [17] 0.05 | [18] 0.021 | [19] 0.07 | [20] -0.054

MYH9 (UniProt P35579)
inactive: [1] 0.011 | [2] -0.013 | [3] 0.04 | [4] 0.061 | [5] -0.136 | [6] 0.046 | [7] 0.081 | [8] -0.005 | [9] -0.029 | [10] 0.009 | [11] -0.041 | [12] -0.067 | [13] 0.021 | [14] 0.043 | [15] -0.021 | [16] -0.048 | [17] 0.02 | [18] 0.035 | [19] -0.072 | [20] 0.068

Remaining list, next part:

MYCBP2 (UniProt O75592)
inactive: [1] -0.191 | [2] 0.36 | [3] 0.019 | [4] -0.192 | [5] 0.582 | [6] -0.158 | [7] -0.032 | [8] -0.327 | [9] 0.078 | [10] -0.167 | [11] 0.055 | [12] 0.043 | [13] -0.109 | [14] -0.059 | [15] 0.032 | [16] 0.014 | [17] -0.049 | [18] -0.126 | [19] 0.69 | [20] -0.255

MTMR2 (UniProt Q13614)
inactive: [1] 0.013 | [2] 0.009 | [3] -0.024 | [4] 0.031 | [5] 0.008 | [6] -0.013 | [7] 0.029 | [8] -0.081 | [9] -0.065 | [10] -0.007 | [11] 0.042 | [12] -0.021 | [13] -0.046 | [14] 0.026 | [15] -0.096 | [16] -0.016 | [17] 0.028 | [18] -0.013 | [19] -0.068 | [20] -0.05

MYO18A (UniProt Q92614)
inactive: [1] -0.085 | [2] 0.022 | [3] 0.008 | [4] -0.06 | [5] 0.166 | [6] -0.05 | [7] -0.047 | [8] 0.028 | [9] -0.01 | [10] 0.01 | [11] -0.077 | [12] -0.12 | [13] 0.017 | [14] -0.054 | [15] 0.031 | [16] 0.062 | [17] -0.039 | [18] -0.013 | [19] 0.062 | [20] -0.007

MRPS36 (UniProt P82909)
inactive: [1] 0.021 | [2] -0.059 | [3] -0.039 | [4] 0.01 | [5] -0.018 | [6] -0.033 | [7] 0.035 | [8] 0.5 | [9] 0.007 | [10] -0.026 | [11] -0.03 | [12] 0.08 | [13] -0.001 | [14] 0.054 | [15] -0.027 | [16] -0.025 | [17] -0.008 | [18] -0.011 | [19] 0.078 | [20] -0.055

MVD (UniProt P53602)
inactive: [1] 0.01 | [2] -0.007 | [3] 0.03 | [4] 0.02 | [5] -0.074 | [6] 0.038 | [7] 0.058 | [8] 0.015 | [9] -0.033 | [10] 0.044 | [11] 0.013 | [12] 0.017 | [13] 0.011 | [14] 0.014 | [15] -0.057 | [16] -0.059 | [17] -0.022 | [18] 0.003 | [19] 0.002 | [20] -0.081

MRPS34 (UniProt P82930)
inactive: [1] 0.057 | [2] -0.039 | [3] 0.021 | [4] -0.037 | [5] 0.08 | [6] 0.011 | [7] 0.037 | [8] 0.171 | [9] 0.173 | [10] -0.06 | [11] 0.06 | [12] 0.004 | [13] 0.021 | [14] -0.002 | [15] -0.068 | [16] -0.055 | [17] 0.036 | [18] -0.018 | [19] 0.051 | [20] 0.175

MTMR6 (UniProt Q9Y217)
inactive: [1] -0.076 | [2] 0.033 | [3] -0.025 | [4] 0.11 | [5] 0.023 | [6] 0.064 | [7] -0.051 | [8] -0.024 | [9] 0.1 | [10] 0.004 | [11] -0.094 | [12] 0.043 | [13] -0.015 | [14] -0.061 | [15] -0.146 | [16] -0.003 | [17] -0.036 | [18] 0.078 | [19] -0.092 | [20] -0.015

MTRF1 (UniProt O75570)
inactive: [1] -0.05

MTMR3 (UniProt Q13615)
inactive: [1] 0.031 | [2] -0.032 | [3] 0.054 | [4] 0.074 | [5] 0.014 | [6] 0.011 | [7] 0.098 | [8] -0.073 | [9] -0.02 | [10] 0.052 | [11] -0.068 | [12] -0.092 | [13] 0.008 | [14] -0.055 | [15] -0.074 | [16] -0.045 | [17] -0.013 | [18] 0.006 | [19] 0.011 | [20] -0.015

MUCL1 (UniProt Q96DR8)
inactive: [1] -0.118 | [2] 0.052 | [3] 0.595 | [4] -0.461 | [5] 0.047 | [6] -0.208 | [7] 0 | [8] -0.198 | [9] -0.063 | [10] 0.099 | [11] 0.026 | [12] -0.23 | [13] 0.332 | [14] 0.741 | [15] 0.102 | [16] 0.295 | [17] -0.169 | [18] 1.13 | [19] 0.35 | [20] -0.295

MYNN (UniProt Q9NPC7)
inactive: [1] 0.098 | [2] -0.009

MRPS23 (UniProt Q9Y3D9)
inactive: [1] 0.053 | [2] -0.046 | [3] -0.001 | [4] 0.031 | [5] -0.042 | [6] -0.002 | [7] -0.019 | [8] -0.172 | [9] 0.068 | [10] 0.096 | [11] -0.001 | [12] 0.08 | [13] 0.133 | [14] 0.044 | [15] 0.032 | [16] -0.018 | [17] 0.024 | [18] 0.006 | [19] 0.047 | [20] 0.068

MVK (UniProt Q03426)
inactive: [1] 0.017 | [2] -0.016 | [3] 0.019 | [4] 0.026 | [5] -0.064 | [6] 0.017 | [7] 0.009 | [8] -0.064 | [9] -0.015 | [10] 0.01 | [11] -0.002 | [12] -0.055 | [13] -0.011 | [14] -0.006 | [15] 0.022 | [16] -0.036 | [17] 0.041 | [18] 0.012 | [19] -0.027 | [20] -0.057

MSMO1 (UniProt Q15800)
inactive: [1] -0.006 | [2] 0.026 | [3] -0.018 | [4] -0.001 | [5] -0.034 | [6] -0.016 | [7] -0.001 | [8] -0.064 | [9] -0.055 | [10] -0.027 | [11] 0.05 | [12] 0.066 | [13] -0.031 | [14] 0.057 | [15] -0.028 | [16] 0.077 | [17] -0.019 | [18] -0.04 | [19] -0.029 | [20] -0.103

MYDGF (UniProt Q969H8)
inactive: [1] -0.047 | [2] 0.006 | [3] -0.007 | [4] -0.007 | [5] 0 | [6] -0.028 | [7] -0.001 | [8] -0.01 | [9] -0.003 | [10] -0.016 | [11] 0.047 | [12] 0.046 | [13] -0.036 | [14] -0.005 | [15] 0.013 | [16] 0.005 | [17] -0.024 | [18] -0.035 | [19] -0.023 | [20] 0.072
